According to paper PMC7819943, “Rice protein-binding microarrays: a tool to detect cis-acting elements near promoter regions in rice”:
Some of the results follow.

Chains of the proteins cited; added tags and fusions are not shown.
UniProt Q0JBA9, entry or part of it: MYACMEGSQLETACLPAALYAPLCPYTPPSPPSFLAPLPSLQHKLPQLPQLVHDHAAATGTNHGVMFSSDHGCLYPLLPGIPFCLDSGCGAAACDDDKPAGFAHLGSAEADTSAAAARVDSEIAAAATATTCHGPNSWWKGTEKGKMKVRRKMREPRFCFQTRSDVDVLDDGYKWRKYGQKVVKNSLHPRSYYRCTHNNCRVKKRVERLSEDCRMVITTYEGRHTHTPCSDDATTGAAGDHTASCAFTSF

Biological target: OsWRKY34 (Oryza sativa, UniProt Q0JBA9 1-250)
Test: protein-binding microarray (RPBM); PBS, 2% BSA, 51.3 ng/ul salmon testes DNA, 50 uM zinc acetate, 200 nM TF, 25 C, 1 h; high values mean tight binding
Details: protein: recombinant; tags: N-terminal polyhistidine and DsRed monomer fusion (pET32a); label: CyDye5-dUTP incorporated in the synthesized complementary strand; 3' TTTTT single-stranded linker to array surface; dsDNA, one strand shown
Method in brief: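 Binding signal is defined as the fluorescence intensity of each feature in arbitrary units, read on an Axon 4000B scanner. Transcription factors with N-terminal polyhistidine and DsRed fusions came from E. coli BL21-CodonPlus and were purified on Ni–NTA. They were incubated at 200 nM for 1 h at 25 °C on a custom Agilent array that had been made double-stranded with Cy5-dUTP, with 50 µM zinc acetate present, and the array was washed.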

| Sequence | binding signal |
| --- | --- |
| GCGCGCGGTTCCACCTCCCGGTCATGTAATTCATCCGTATCGGAGTCACCTAGTGCAG | 8370 fluorescence intensity (a.u.) |
| ACATGACCCCATGATTCGATTGGATTGTTGTTACATAAAACGGAGTCACCTAGTGCAG | 8930 fluorescence intensity (a.u.) |
| GTGAATGTAAAAAATACTTGCTTTTGTCCTTTATGATTGGCGGAGTCACCTAGTGCAG | 8970 fluorescence intensity (a.u.) |
| GAATGTGCGTTTATGTTTATTTGCATTGCTTATTAGCAACCGGAGTCACCTAGTGCAG | 9510 fluorescence intensity (a.u.) |
| GTGTGTCTGGTGACTCTTATTTTGTTAGTCTGATTCGTTTCGGAGTCACCTAGTGCAG | 10200 fluorescence intensity (a.u.) |
| TCCATTTTCACCACTGTTTGTTATTGATACCGACTAAAACCGGAGTCACCTAGTGCAG | 10300 fluorescence intensity (a.u.) |
| TCCGATGGGAGCCTCTATCTCTATCTCTCTCTAAACCCAACGGAGTCACCTAGTGCAG | 8070 fluorescence intensity (a.u.) |
| ACATATATAGTACGTTAATTTAATCATGTTATTACAAGCTCGGAGTCACCTAGTGCAG | 8510 fluorescence intensity (a.u.) |
| CCCCATCAACCGCCGCTGACGCCCCTGCCTCTGAGTCCACCGGAGTCACCTAGTGCAG | 9800 fluorescence intensity (a.u.) |
| AAACAATACTACCTACAATTTTATTTACATTACGTTTGGTCGGAGTCACCTAGTGCAG | 8420 fluorescence intensity (a.u.) |
| CCGATCCAGAGCTCTCCGTCCGCTTCCCGCGCTCGTGTCGCGGAGTCACCTAGTGCAG | 8900 fluorescence intensity (a.u.) |
| ATTTTTTTTTGGCATAGTTTGTGTTCACTGCAAAAATCACCGGAGTCACCTAGTGCAG | 9080 fluorescence intensity (a.u.) |
| CATCTGCTTGGACGATTTTCTTGGGTGCTATCCTGTTCTTCGGAGTCACCTAGTGCAG | 11000 fluorescence intensity (a.u.) |
| AGAATCATCTCCTGCATACATACGTCAACCGTCTCCATCCCGGAGTCACCTAGTGCAG | 10900 fluorescence intensity (a.u.) |
| TTTATCATCTGCATATATTTGAGTGCCTTTGCAGAATTTCCGGAGTCACCTAGTGCAG | 8310 fluorescence intensity (a.u.) |
| GCCTCTCTACACGATCTGCGAGTGTTACCTTGTGTTCTTACGGAGTCACCTAGTGCAG | 8280 fluorescence intensity (a.u.) |
| ATGGACTTTTTTCTCAATATTCCTTGTTTTTATTTCTGAACGGAGTCACCTAGTGCAG | 12000 fluorescence intensity (a.u.) |
| TATTTGACCATTCATATGTAAGTACCATTTGTTTCGCTGTCGGAGTCACCTAGTGCAG | 10300 fluorescence intensity (a.u.) |
| CCAGGTCAGAAAGCTACAAACTACTCGGTCTTTTGGTCAACGGAGTCACCTAGTGCAG | 9670 fluorescence intensity (a.u.) |
| TTTCTTTTACCGGTGTTTTTTCTACATCGAATTTTCTCTTCGGAGTCACCTAGTGCAG | 9880 fluorescence intensity (a.u.) |
| CTGTTTAGATGTAGTGACAATTCAATAGCCTATGCATCCACGGAGTCACCTAGTGCAG | 8720 fluorescence intensity (a.u.) |
| CGCCAAGGGGACCAGACCACACCACTCCGGTCCGACTCCGCGGAGTCACCTAGTGCAG | 8550 fluorescence intensity (a.u.) |
| AGGTGTATATTGGGCAGGTATTAGGTGCATAGTCAAAAGTCGGAGTCACCTAGTGCAG | 11000 fluorescence intensity (a.u.) |
| ACCAAGGGGCCTGAACCAATATAATCCTTGTCTTATGTTTCGGAGTCACCTAGTGCAG | 8040 fluorescence intensity (a.u.) |
| TTGTTTATTTAAGGTGTGATTGTATTTGGATCATGTTTTGCGGAGTCACCTAGTGCAG | 8980 fluorescence intensity (a.u.) |
| GTGGAGTGCGGTGGACGGAGCGGCGGGGCGGGGCGGTCAGCGGAGTCACCTAGTGCAG | 16700 fluorescence intensity (a.u.) |
| TCCTCTGGCTTTCTTTTCCCATTTCGTCTCTTGTTTGTTTCGGAGTCACCTAGTGCAG | 9160 fluorescence intensity (a.u.) |

As a working copy, part of the list above.

| Sequence | binding signal |
| --- | --- |
| CATCTGCTTGGACGATTTTCTTGGGTGCTATCCTGTTCTTCGGAGTCACCTAGTGCAG | 11000 fluorescence intensity (a.u.) |
| AGAATCATCTCCTGCATACATACGTCAACCGTCTCCATCCCGGAGTCACCTAGTGCAG | 10900 fluorescence intensity (a.u.) |
| TTTATCATCTGCATATATTTGAGTGCCTTTGCAGAATTTCCGGAGTCACCTAGTGCAG | 8310 fluorescence intensity (a.u.) |

More entries follow.

| Sequence | binding signal |
| --- | --- |
| CTCCTCTGCTTCCGATCTGCGCCGCCGCGGCGGGAGGGTCCGGAGTCACCTAGTGCAG | 8690 fluorescence intensity (a.u.) |
| AATTAGATTTCCCAGTACAGATTGTCGGTCAAAGTTTGGCCGGAGTCACCTAGTGCAG | 8640 fluorescence intensity (a.u.) |
| TCTGCACATCCATCGACACAAAGTCTCAAGTTGTTGCGCGCGGAGTCACCTAGTGCAG | 10300 fluorescence intensity (a.u.) |
| CATGTGTTAAAAAGTCAACGGTGTCAAATATTTTAAAACACGGAGTCACCTAGTGCAG | 9250 fluorescence intensity (a.u.) |
| GTGGATTGCATGATGAATCCTTTTGCACAATTGTTTGGCCCGGAGTCACCTAGTGCAG | 8490 fluorescence intensity (a.u.) |
| TGTCCACACTTCCCAACTCATTAAATAGTTTGTTTTTTGACGGAGTCACCTAGTGCAG | 8320 fluorescence intensity (a.u.) |
| GGAAGAGATTTTTCATGTGTTACAATATACTACTCCCTCCCGGAGTCACCTAGTGCAG | 12100 fluorescence intensity (a.u.) |
| TCTTTCGCGTTTTTTATGGTGTGTTTTCTTTTCCGCGTGCCGGAGTCACCTAGTGCAG | 10500 fluorescence intensity (a.u.) |
| AAGAGATTTCTTCAACCTGCATACTAGGTTCTCTTTTCCACGGAGTCACCTAGTGCAG | 8270 fluorescence intensity (a.u.) |
| GACGCATCCGCACTCCACTCCACTCCACTCCACTCCACTGCGGAGTCACCTAGTGCAG | 8230 fluorescence intensity (a.u.) |
| CCATACCACCGTTTTTCTCGTGATGTCATATCTTCAGGTTCGGAGTCACCTAGTGCAG | 9930 fluorescence intensity (a.u.) |
| TATCCTATCCTACGTTTGTTGCTCGGTTGCTTCTCTTCTTCGGAGTCACCTAGTGCAG | 13700 fluorescence intensity (a.u.) |
| ATCATTCCCCACACCACAAGGCCTCAAGTAATTCACAGTTCGGAGTCACCTAGTGCAG | 8970 fluorescence intensity (a.u.) |
| TTGCGCTTACGTTTGGTGTTTGTGTTTTACGAGATGCATTCGGAGTCACCTAGTGCAG | 9340 fluorescence intensity (a.u.) |
| CGGACATTTTCACCGCCACACTGATTTGTGGCGCGCCACTCGGAGTCACCTAGTGCAG | 9290 fluorescence intensity (a.u.) |
| CTTAATAAATTTGTCTCTCGATTTTCTTACGGATTATGTACGGAGTCACCTAGTGCAG | 8760 fluorescence intensity (a.u.) |
| TTCTCTGACTACCGGTCCCACCTGTCATCGACCTGCGCTCCGGAGTCACCTAGTGCAG | 8510 fluorescence intensity (a.u.) |
| CCATGCCCACTGTGGTATAGCTCCTTGGATCTGGTTATGTCGGAGTCACCTAGTGCAG | 9530 fluorescence intensity (a.u.) |
| TGTTGTTTTGGTCTACAGTTGTCTTTTGAGTTGTTGTATTCGGAGTCACCTAGTGCAG | 12200 fluorescence intensity (a.u.) |
| CGCGCGACGTTCTTTCCGTTTTCCGTTTGCCACGAATTCACGGAGTCACCTAGTGCAG | 8990 fluorescence intensity (a.u.) |
| ATAGTTGTTTGGCCTTTTACTAATATTGTGTCCATGGATGCGGAGTCACCTAGTGCAG | 8270 fluorescence intensity (a.u.) |
| CTGGAGGATCCTATTGTGCTTACCCTGATTTTCATCCCTCCGGAGTCACCTAGTGCAG | 10900 fluorescence intensity (a.u.) |
| CCGCCCGCCAGTGTGCTCCTCGTTGGCTCGATTGCTCATTCGGAGTCACCTAGTGCAG | 8480 fluorescence intensity (a.u.) |
| TTTTTTCGGCTTACTGCACATTTGTAACCTGCAGTCCTTCCGGAGTCACCTAGTGCAG | 9490 fluorescence intensity (a.u.) |
| ACCTCGTTTTCTGGTCACAGTTTCCTTTTGTGTGAAAAACCGGAGTCACCTAGTGCAG | 9370 fluorescence intensity (a.u.) |
| TCTGGTGATTCCCGGCCTCCTCGATTGCTCGCCCGCGCGGCGGAGTCACCTAGTGCAG | 8370 fluorescence intensity (a.u.) |
| ATTTGAAATTTAAATTTTAGCTTTTGCTTTAGTTTATTTGCGGAGTCACCTAGTGCAG | 9680 fluorescence intensity (a.u.) |
